One assay deals with T1, ULK1-Flag (UniProt O75385).
T1 sequence: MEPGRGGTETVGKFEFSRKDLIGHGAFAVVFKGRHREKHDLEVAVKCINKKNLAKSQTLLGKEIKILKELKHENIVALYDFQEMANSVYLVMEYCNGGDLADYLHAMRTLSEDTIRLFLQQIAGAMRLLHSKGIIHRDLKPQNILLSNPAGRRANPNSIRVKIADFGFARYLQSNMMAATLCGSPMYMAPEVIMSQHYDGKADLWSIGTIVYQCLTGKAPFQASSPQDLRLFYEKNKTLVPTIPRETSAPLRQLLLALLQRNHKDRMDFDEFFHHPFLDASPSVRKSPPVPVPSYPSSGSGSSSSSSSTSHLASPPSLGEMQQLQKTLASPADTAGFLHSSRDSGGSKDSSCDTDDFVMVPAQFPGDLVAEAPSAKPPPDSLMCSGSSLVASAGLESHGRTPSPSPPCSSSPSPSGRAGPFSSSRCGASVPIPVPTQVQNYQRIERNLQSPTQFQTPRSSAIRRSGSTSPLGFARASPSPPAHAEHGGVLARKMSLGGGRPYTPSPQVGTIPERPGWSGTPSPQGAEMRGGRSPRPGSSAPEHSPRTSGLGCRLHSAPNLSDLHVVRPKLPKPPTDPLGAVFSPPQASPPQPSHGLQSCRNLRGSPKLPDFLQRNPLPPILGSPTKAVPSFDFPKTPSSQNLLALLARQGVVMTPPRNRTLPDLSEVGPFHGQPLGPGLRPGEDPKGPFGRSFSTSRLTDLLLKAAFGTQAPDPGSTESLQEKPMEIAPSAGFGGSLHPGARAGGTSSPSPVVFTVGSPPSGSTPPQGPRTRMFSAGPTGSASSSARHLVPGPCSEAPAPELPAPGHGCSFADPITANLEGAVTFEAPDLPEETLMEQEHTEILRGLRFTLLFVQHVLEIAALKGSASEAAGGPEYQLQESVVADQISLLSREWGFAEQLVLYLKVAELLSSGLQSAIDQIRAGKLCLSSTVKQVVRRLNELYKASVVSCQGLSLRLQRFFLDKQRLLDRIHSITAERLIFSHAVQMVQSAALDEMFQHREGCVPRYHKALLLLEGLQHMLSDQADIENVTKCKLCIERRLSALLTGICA
As to the kind of experiment: co-IP; HEK-293T transfected with a tagged bait (with Nsp2-HA or empty vector; with GRASP65-myc in Fig. S4C), 36 h; anti-tag magnetic beads at 4°C overnight; endogenous partner detected by IB with specific antibodies.

Sequences of proteins named here, by UniProt entry; tags and fusion partners are left off.
UniProt P61019: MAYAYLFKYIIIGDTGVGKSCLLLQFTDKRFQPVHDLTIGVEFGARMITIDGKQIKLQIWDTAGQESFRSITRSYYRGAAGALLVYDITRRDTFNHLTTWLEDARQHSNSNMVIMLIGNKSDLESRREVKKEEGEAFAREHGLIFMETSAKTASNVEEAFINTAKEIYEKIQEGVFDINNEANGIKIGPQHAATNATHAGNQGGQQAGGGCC

A further assay deals with RAB2-GFP (UniProt P61019). In words: co-IP; Fig. S4A: RAB2-GFP and endogenous GM130, with overexpression of GRASP65-myc; details in the supplemental legends (not shown).
Another assay addresses RAB2-myc (UniProt P61019). As to the kind of experiment: co-IP; HEK-293T transfected with a tagged bait (with Nsp2-HA or empty vector; with GRASP65-myc in Fig. S4C), 36 h; anti-tag magnetic beads at 4°C overnight; endogenous partner detected by IB with specific antibodies.

Results are given in words; binding and its absence hold for the method and conditions named. Binding seen in cells or lysates may run through a third protein. Some entries that bind do so weakly or less than the wild type. For part of these data: Sequences can lack the tags named with a protein.

Regarding “RAB2, endogenous in HEK-293T (from UniProt P61019 1-212)”, the binding result with ULK1-Flag is given as “binds”.

B1: Golgi matrix protein 130 (GM130), endogenous in HEK-293T (protein, UniProt Q08379 1-1002)
chain: MWPQPRLPPRPAMSEETRQSKLAAAKKKLREYQQRNSPGVPTGAKKKKKIKNGSNPETTTSGGCHSPEDTPKDNAATLQPSDDTVLPGGVPSPGASLTSMAASQNHDADNVPNLMDETKTFSSTESLRQLSQQLNGLVCESATCVNGEGPASSANLKDLESRYQQLAVALDSSYVTNKQLNITIEKLKQQNQEITDQLEEEKKECHQKQGALREQLQVHIQTIGILVSEKAELQTALAHTQHAARQKEGESEDLASRLQYSRRRVGELERALSAVSTQQKKADRYNKELTKERDALRLELYKNTQSNEDLKQEKSELEEKLRVLVTEKAGMQLNLEELQKKLEMTELLLQQFSSRCEAPDANQQLQQAMEERAQLEAHLGQVMESVRQLQMERDKYAENLKGESAMWRQRMQQMSEQVHTLREEKECSMSRVQELETSLAELRNQMAEPPPPEPPAGPSEVEQQLQAEAEHLRKELEGLAGQLQAQVQDNEGLSRLNREQEERLLELERAAELWGEQAEARRQILETMQNDRTTISRALSQNRELKEQLAELQSGFVKLTNENMEITSALQSEQHVKRELGKKLGELQEKLSELKETVELKSQEAQSLQQQRDQYLGHLQQYVAAYQQLTSEKEVLHNQLLLQTQLVDQLQQQEAQGKAVAEMARQELQETQERLEAATQQNQQLRAQLSLMAHPGEGDGLDREEEEDEEEEEEEAVAVPQPMPSIPEDLESREAMVAFFNSAVASAEEEQARLRGQLKEQRVRCRRLAHLLASAQKEPEAAAPAPGTGGDSVCGETHRALQGAMEKLQSRFMELMQEKADLKERVEELEHRCIQLSGETDTIGEYIALYQSQRAVLKERHREKEEYISRLAQDKEEMKVKLLELQELVLRLVGDRNEWHGRFLAAAQNPADEPTSGAPAPQELGAANQQGDLCEVSLAGSVEPAQGEAREGSPRDNPTAQQIMQLLREMQNPRERPGLGSNPCIPFFYRADENDEVKITVI
For the molecule B1, the binding entry with RAB2-GFP and with RAB2-myc was “binds” each time.

Values taken from publication PMC10878038.
